{"source": "patent US12076368B2", "about": "“Treatment of liver, biliary tract and pancreatic disorders” (Novozymes A/S, priority 2016, dated 2024)", "key": {"[1]": {"system": "high fat diet fed mice", "assay": "Prevention study (Examples 1 and 2): weight, lean/fat mass, liver and eWAT weight, defensin in high fat diet", "assay_type": "in vivo", "conditions": "preventive; at termination"}, "[2]": {"system": "high fat diet fed mice", "assay": "Prevention study: glucose homeostasis (ITT, OGTT, GSIS, five hour fasting insulin, HOMA-IR)", "assay_type": "in vivo", "conditions": "preventive"}, "[3]": {"system": "Peroxisome proliferator activated receptor gamma 2 (PPARγ2)", "assay": "Prevention study: PPARγ2 expression in the liver", "assay_type": "in vivo, mice", "conditions": "preventive; vs HFD control"}, "[4]": {"system": "peroxisomal acyl-coenzyme A oxidase 1 (Acox1)", "assay": "Prevention study: Acox1 expression in the liver", "assay_type": "in vivo, mice", "conditions": "preventive"}, "[5]": {"system": "high fat diet fed mice", "assay": "Intervention study (Example 4): weight, fat percentage, liver and eWAT weight in obese HFD mice", "assay_type": "in vivo"}, "[6]": {"system": "high fat diet fed mice", "assay": "Intervention study (Example 4): glucose tolerance and insulin tolerance tests", "assay_type": "in vivo"}, "[7]": {"system": "PPARγ2", "assay": "Intervention study: PPARγ2 expression in the liver", "assay_type": "in vivo, mice", "conditions": "vs LFD group"}, "[8]": {"system": "peroxisomal acyl-coenzyme A oxidase 1 (Acox1)", "assay": "Intervention study: Acox1 expression in the liver", "assay_type": "in vivo, mice"}, "[9]": {"system": "mice fed on a high fat diet and a vitamin D deficiency diet", "conditions": "HD5 four times over 25 days; CN104971343; cited from earlier work"}}, "note": "Entries after “also recorded” stand apart in the source; their conditions may differ. At least one peptide structure holds a part that was inferred or is arguable (an end, a ring closure or a residue). Positions of bridges follow the written chain, without caps; N, C: chain ends. Residues, ends and D or L forms follow the SMILES beside them."}
{"smiles": "CC[C@H](C)[C@@H]1NC(=O)[C@H](CCC(=O)O)NC(=O)[C@@H]2CSSC[C@@H]3NC(=O)[C@H](Cc4ccc(O)cc4)NC(=O)[C@@H](NC(=O)[C@@H](NC(=O)[C@H](C)N)[C@@H](C)O)CSSC[C@@H](C(=O)N[C@@H](CCCNC(=N)N)C(=O)O)NC(=O)[C@H](CSSC[C@H](NC(=O)[C@H](CCCNC(=N)N)NC(=O)CNC(=O)[C@H]([C@@H](C)O)NC(=O)[C@H](CCCNC(=N)N)NC3=O)C(=O)N[C@@H](C)C(=O)N[C@@H]([C@@H](C)O)C(=O)N[C@@H](CCCNC(=N)N)C(=O)N[C@@H](CCC(=O)O)C(=O)N[C@@H](CO)C(=O)N[C@@H](CC(C)C)C(=O)N[C@@H](CO)C(=O)NCC(=O)N[C@@H](C(C)C)C(=O)N2)NC(=O)[C@H](CC(C)C)NC(=O)[C@H](CCCNC(=N)N)NC(=O)[C@H](Cc2ccc(O)cc2)NC(=O)[C@H](CC(C)C)NC(=O)[C@H](CCCNC(=N)N)NC(=O)CNC(=O)[C@H](CO)NC1=O", "note": "[HD5, human intestinal alpha defensin 5] (H-ATCYCRTGRCATRESLSGVCEISGRLYRLCCR-OH; disulfide 3-31, 5-20, 10-30)", "values": [{"measurement": "eWAT (visceral fat) vs HFD group", "setting": "[1]", "result": "borderline less visceral fat than did HFD-fed control mice"}, {"measurement": "oral glucose tolerance test", "setting": "[2]; week 7", "result": "higher than for the LFD mice; also recorded: no improvement in glucose tolerance"}, {"measurement": "glucose stimulated insulin secretion (insulin concentration after glucose)", "setting": "[2]; week 7 during oGTT", "result": "significantly higher and sustained insulin concentration following glucose administration"}, {"measurement": "insulin tolerance test (insulin sensitivity)", "setting": "[2]; week 8", "result": "LFD group was significantly more insulin sensitive than the HFD fed groups"}, {"measurement": "HOMA-IR", "setting": "[2]; week 9, vs HFD group", "result": "not significantly lower than the HFD group"}, {"measurement": "PPARγ2 expression in the liver", "setting": "[3]", "result": "no protective effect of HD-5 on HFD"}, {"measurement": "Acox1 expression in the liver vs LFD control group", "setting": "[4]; p=0.0009", "result": "significantly increased in the HFD plus HD-5 group compared to the LFD control group"}, {"measurement": "Acox1 expression in the liver vs HFD control", "setting": "[4]; p=0.07 one-way Anova", "result": "borderline significant difference between HFD control and the HFD plus HD-5 group"}, {"measurement": "fat percentage of total body weight over time", "setting": "[5]", "result": "tendency of decreasing fat percentage"}, {"measurement": "liver weight at termination vs HFD control", "setting": "[5]", "result": "tended to be decreased in the HFD plus HD-5 fed group compared to the HFD control"}, {"measurement": "visceral fat (eWAT) weight at termination vs HFD control", "setting": "[5]", "result": "visceral and subcutaneous depots were not significantly different"}, {"measurement": "visceral fat (eWAT) weight at termination vs LFD group", "setting": "[5]", "result": "larger in the HFD fed groups than the LFD fed group"}, {"measurement": "weight gain after dietary intervention", "setting": "[5]; 10 weeks on experimental diet, vs HFD control", "result": "gained significantly less weight than the HFD control"}, {"measurement": "share of standard HFD fed mice with liver weight higher than the highest HFD plus HD-5 fed mouse", "setting": "[5]; at termination", "result": "~50", "unit": "%"}, {"measurement": "change in fat percentage at 4 weeks vs HFD group", "setting": "[5]; end of run-in to week 4", "result": "significantly lower fat percentage"}, {"measurement": "oral glucose tolerance test", "setting": "[6]; repeated biweekly from week 13-0, representative cage", "result": "improved over time"}, {"measurement": "insulin tolerance test (insulin sensitivity) vs HFD control", "setting": "[6]; week 9", "result": "more insulin sensitive than the HFD control"}, {"measurement": "PPARγ2 expression in the liver", "setting": "[7]", "result": "significantly higher in both HFD groups compared to the LFD group"}, {"measurement": "Acox1 expression in the liver", "setting": "[8]", "result": "substantially the same in all three groups"}, {"measurement": "plasma glucose levels", "setting": "[9]", "result": "partly resulted in decrease of plasma glucose levels"}]}
